Some of the results follow. Shown are side measurements of this screen, not its main read-out; they come without a call. The list favours compounds with an active or inconclusive main result. The note in brackets gives the kind of curve behind each potency; many fits are weak.
Experiment: qHTS Assay for Modulators of Lamin A Splicing
Details: HeLa LMNA splicing GFP/RFP minigene ratio, 48 h
Procedure, shortened: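 S3 HeLa cells stably expressing lamin A-EGFP splicing minigene plus DsRed2, 600 cells/well, 48 h compound exposure at 37C. Laser-scanning cytometry; analysed as GFP (500-530 nm)/RFP (575-640 nm) total intensity ratio; 0.5% DMSO vehicle.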

[1] = measured here: RFP viability control channel
[2] = measured here: GFP splicing reporter channel

Compound	AC50 [1]	AC50 [2]
CCCCC(=O)N(CCOC)c1nnc(-c2ccccc2C)s1	0.00631 µM [falling, full curve, poor fit]	
CCc1cc2cc(C)ccc2nc1SCC(=O)N1CCN(C(=O)c2ccco2)CC1	35.5 µM [rising, single point]	31.6 µM [rising, single point]
O=C(NC(=S)NCc1ccc(F)cc1)c1ccccc1	35.5 µM [rising, single point]	35.5 µM [rising, single point]
CCOC(=O)c1c(OCCO)nn(-c2ccccc2)c1N	5.01 µM [falling, full curve, poor fit]	
COc1c2occc2cc2ccc(=O)oc12		2.24 µM [falling, single point]
O=C(CSc1nc2ccc([N+](=O)[O-])cc2s1)NC1CCS(=O)(=O)C1 (centres undefined)	11.2 µM [rising, single point]	
Oc1ccc(N=Cc2ccc(O)c(O)c2)cc1	28.2 µM [falling, single point]	35.5 µM [falling, single point]
N#Cc1c(-c2ccc(Cl)cc2)ccn2nc(CCC(=O)O)nc12	35.5 µM [rising, single point]	35.5 µM [rising, single point]
COc1ccc(N2CCN(C(=O)c3ccc(NS(=O)(=O)c4cccc(F)c4)cc3)CC2)cc1	31.6 µM [rising, single point]	
O=C(NC1CCN(Cc2ccccc2)CC1)c1cccc(S(=O)(=O)Nc2cc(C(F)(F)F)ccc2Cl)c1	0.126 µM [rising, full curve, poor fit]	0.112 µM [rising, full curve, poor fit]
CN(C)/C=C1\C(=O)N(c2ccc([N+](=O)[O-])cc2)N=C1c1ccccc1	12.6 µM [rising, partial curve]	14.1 µM [rising, single point]
Cc1cc(C)cc(S(=O)(=O)Nc2cccc(-c3ccc(N4CCOCC4)nn3)c2)c1	31.6 µM [falling, partial curve]	0.126 µM [falling, full curve, poor fit]
CC(=O)c1ccc(NC(=O)Cn2c(=O)c3cccn3c3ccccc32)cc1		35.5 µM [falling, single point]
COc1ccc(-c2nc(-c3ccccc3)c(-c3cc([N+](=O)[O-])ccc3C)[nH]2)cc1O	22.4 µM [falling, partial curve]	35.5 µM [falling, single point]
Oc1[nH]c2ccccc2c1C1=NCCCCC1	10 µM [falling, partial curve, poor fit]	
CCN1CCN(c2ccc(NC(=O)c3ccc([N+](=O)[O-])o3)cc2Cl)CC1	35.5 µM [falling, single point]	8.91 µM [falling, partial curve, poor fit]
O=C(CSc1nnc2n1CCCN2C(=S)Nc1ccc(Cl)cc1)c1ccccc1	25.1 µM [rising, single point]	
COc1ccc(CC(=O)Nc2nnc(SCC(=O)NCc3ccco3)s2)cc1OC	2.51 µM [rising, full curve, poor fit]	
Cc1oc(-c2cc(Cl)cc(Cl)c2)cc1C(=O)NCCc1ccccc1	0.891 µM [rising, full curve, poor fit]	
Cn1c(=O)oc2cc(S(=O)(=O)Nc3ccc4c(c3)OCCO4)ccc21	14.1 µM [rising, partial curve]	14.1 µM [rising, partial curve]
c1ccc(-c2csc3ncnc(NCC4COc5ccccc5O4)c23)cc1 (centres undefined)	1.41 µM [rising, partial curve]	12.6 µM [rising, partial curve, poor fit]
CC(OC(=O)c1ccccc1NS(=O)(=O)c1cccc(N)c1)C(=O)N(C)Cc1ccccc1 (centres undefined)	35.5 µM [rising, single point]	
COc1ccc(N(Cc2ccccc2)S(=O)(=O)c2ccc(C)cc2)cc1	25.1 µM [falling, partial curve]	14.1 µM [falling, partial curve]
CC(=O)c1ccc(NC(=S)Nc2ccn(Cc3ccc(Br)cc3)n2)cc1	22.4 µM [rising, partial curve, poor fit]	
Cc1nc2ccccc2n1CC(=O)NCc1ccccc1	20 µM [rising, single point]	17.8 µM [rising, single point]
CCCCNC(=S)N(Cc1ccco1)Cc1cc2cc3c(cc2[nH]c1=O)OCCO3	35.5 µM [rising, single point]	17.8 µM [rising, single point]

Sorted by molar mass (rising): 16 of the compounds above.
Compound	AC50 [1]	AC50 [2]
COc1c2occc2cc2ccc(=O)oc12		2.24 µM [falling, single point]
Oc1[nH]c2ccccc2c1C1=NCCCCC1	10 µM [falling, partial curve, poor fit]	
Oc1ccc(N=Cc2ccc(O)c(O)c2)cc1	28.2 µM [falling, single point]	35.5 µM [falling, single point]
Cc1nc2ccccc2n1CC(=O)NCc1ccccc1	20 µM [rising, single point]	17.8 µM [rising, single point]
N#Cc1c(-c2ccc(Cl)cc2)ccn2nc(CCC(=O)O)nc12	35.5 µM [rising, single point]	35.5 µM [rising, single point]
CCCCC(=O)N(CCOC)c1nnc(-c2ccccc2C)s1	0.00631 µM [falling, full curve, poor fit]	
CN(C)/C=C1\C(=O)N(c2ccc([N+](=O)[O-])cc2)N=C1c1ccccc1	12.6 µM [rising, partial curve]	14.1 µM [rising, single point]
CC(=O)c1ccc(NC(=O)Cn2c(=O)c3cccn3c3ccccc32)cc1		35.5 µM [falling, single point]
COc1ccc(N(Cc2ccccc2)S(=O)(=O)c2ccc(C)cc2)cc1	25.1 µM [falling, partial curve]	14.1 µM [falling, partial curve]
Cc1oc(-c2cc(Cl)cc(Cl)c2)cc1C(=O)NCCc1ccccc1	0.891 µM [rising, full curve, poor fit]	
c1ccc(-c2csc3ncnc(NCC4COc5ccccc5O4)c23)cc1 (centres undefined)	1.41 µM [rising, partial curve]	12.6 µM [rising, partial curve, poor fit]
CCN1CCN(c2ccc(NC(=O)c3ccc([N+](=O)[O-])o3)cc2Cl)CC1	35.5 µM [falling, single point]	8.91 µM [falling, partial curve, poor fit]
CCc1cc2cc(C)ccc2nc1SCC(=O)N1CCN(C(=O)c2ccco2)CC1	35.5 µM [rising, single point]	31.6 µM [rising, single point]
O=C(CSc1nnc2n1CCCN2C(=S)Nc1ccc(Cl)cc1)c1ccccc1	25.1 µM [rising, single point]	
COc1ccc(CC(=O)Nc2nnc(SCC(=O)NCc3ccco3)s2)cc1OC	2.51 µM [rising, full curve, poor fit]	
O=C(NC1CCN(Cc2ccccc2)CC1)c1cccc(S(=O)(=O)Nc2cc(C(F)(F)F)ccc2Cl)c1	0.126 µM [rising, full curve, poor fit]	0.112 µM [rising, full curve, poor fit]

(list continues)

Compound	AC50 [1]	AC50 [2]
Fc1ccc(-c2cc3nc4c(c(N5CCOCC5)n3n2)CCCC4)cc1	28.2 µM [rising, single point]	15.8 µM [rising, single point]
CC1=CC(C)(C)N(C(=O)CSc2nnc(-c3ccccc3)o2)c2ccc(C)cc21	25.1 µM [rising, single point]	14.1 µM [rising, partial curve]
CCOC(=O)c1cnc(NCc2ccccc2OC)c2ccccc12	20 µM [rising, partial curve]	0.631 µM [rising, full curve, poor fit]
COc1ccc(S(=O)(=O)N2CCCCC2)cc1C(=O)Nc1cccc(C(F)(F)F)c1	2.51 µM [falling, partial curve]	
O=C(OCCN(C1=NS(=O)(=O)c2ccccc21)c1ccc(Cl)cc1)c1ccco1	15.8 µM [rising, single point]	12.6 µM [rising, single point]
COc1ccc(-c2ccc(=O)n(CC(=O)Nc3ccc(C)cc3C)n2)cc1	0.0224 µM [falling, full curve, poor fit]	12.6 µM [falling, partial curve]
CCCCn1nnnc1NCc1ccc(OC)c(OC)c1OC	15.8 µM [rising, single point]	
Cc1cccc(-c2noc(CN(C(=O)c3ccc4c(c3)OCO4)C(C)C)n2)c1	31.6 µM [rising, single point]	
C=CCNC(=O)c1ccc(C(=O)c2ccccc2)cc1	10 µM [rising, single point]	
CC(C)c1ccc(N2C(=O)CC(Sc3nc4ccccc4o3)C2=O)cc1 (centres undefined)	22.4 µM [falling, single point]	17.8 µM [falling, partial curve]
COc1ccccc1N1CCN(C(=O)c2ccc3c(Cl)c4c(nc3c2)CCCC4)CC1	17.8 µM [rising, partial curve]	
O=c1[nH]nc(Cc2ccc3ccccc3n2)c2ccccc12	14.1 µM [rising, partial curve]	15.8 µM [rising, single point]
CN(Cc1cnc2nc(N)nc(N)c2n1)c1ccc(C(=O)N[C@H](CCC(=O)O)C(=O)O)cc1		0.00398 µM [falling, full curve]
Cc1n[nH]c(C)c1Sc1ccccc1N	2.82 µM [rising, partial curve]	
Cc1cc(C(=O)OCC(=O)c2cccs2)c2ccccc2n1		3.98 µM [falling, partial curve, poor fit]
Cc1cccc(C(=O)N[C@H](C(=O)Nc2ncc(C)s2)C(C)C)c1	35.5 µM [falling, single point]	
CCN(CC)C(=O)c1ccc(Cn2cc([N+](=O)[O-])cn2)o1	44.7 µM [falling, partial curve, poor fit]	12.6 µM [falling, partial curve, poor fit]
COc1ccc(NC(=O)Nc2cccnc2)c(OC)c1		0.0316 µM [falling, full curve, poor fit]
CC(NC(=O)c1ccccc1NC(=O)c1nsc2ccccc12)c1ccccc1 (centres undefined)	6.31 µM [rising, single point]	4.47 µM [rising, partial curve]
CCCCCCCCCCS(=O)(=O)N/N=C/c1ccc(O)cc1	35.5 µM [rising, single point]	28.2 µM [rising, single point]
Fc1cc(Br)ccc1Nc1c2c(nc3nc(-c4cccs4)nn13)CCCC2	1.41 µM [rising, partial curve, poor fit]	1.41 µM [rising, partial curve, poor fit]
CC1CCCN(c2ccc(F)cc2N)C1 (centres undefined)		5.01 µM [rising, single point]
O=C(O)c1ccc(C2NCC(c3ccccc3Cl)c3c2[nH]c2ccccc32)cc1 (centres undefined)		20 µM [rising, single point]
O=C(O)c1ccccc1C(=O)Nc1ccc(Oc2cccc3ccccc23)cc1	0.0794 µM [falling, full curve, poor fit]	0.0447 µM [falling, full curve, poor fit]
CS(=O)(=O)N(CC(=O)N1CCN(Cc2ccc3c(c2)OCO3)CC1)Cc1ccc(Cl)cc1	17.8 µM [rising, single point]	25.1 µM [rising, partial curve, poor fit]
CCOC(=O)c1c(-c2ccc(C)o2)csc1NC(=O)CSc1nnc(C)s1		31.6 µM [rising, single point]
